We go through ten molecules from PMC10163288.

B1: il10ra_site1_sap_19_mot_HHH_b2_08050_000000089_0001_21_37_H_._HHH_b1_02869_0001_0000200020_0000003_0_0001 (protein)
chain: SSSSSTQEVYELLEELVKLIHNNDQEEAERLIEEIERLIEELNNPNMRMILEFLERALKRSSSSS
B2: il10ra_site1_sap_18_mot_HHH_b2_07569_000000265_0001_38_56_H_._HHH_b1_02823_0001_0000100002_0000002_0_0001_af2pred_dldesign_0_af2pred (protein)
chain: SSSSSPETVEIYRLIKEAAELLEKGDYEKVRELLEEAEKLAKKAKDELALAAIAALRRRLGSSSS
B3: il10ra_site1_normal_mot_HHH_b2_05984_000000040_0001_38_52_H_._HHH_b1_06146_0001_0000100001_0000002_0 (protein)
chain: SSSSSSDVKERVEELEEEIEKSDDPQERRELLEEVVELALKYQDLEAAEIATHLVRRLSSSSSSS
B4: il10ra_site1_normal_mot_HHH_b2_08144_af2_000000046_0001_38_52_H_._HHH_b1_03926_af2_0001_0000200013_0000001_1_af2pred_dldesign_0_af2pred (protein)
chain: SSSSSKTEEIIRLLTEGLELYAEGKPEEAKKLLEKALKLAEEINDPILADTARYALSQVESSSSS
B5: il10ra_site1_sap_24_mot_HHH_b1_06912_af2_000000235_0001_1_15_H_._HHH_b1_00741_0001_0000200006_0000001_0_0001 (protein)
chain: SSSSDEVEERVEELLERAQKIEDPDERYRLLEEAIKLAIENRDEEAEKLVHEVLRELMHKSSSSS
B6: il10ra_site1_sap_20_mot_HHH_b1_02665_000000293_0001_1_18_H_._HHH_b1_08612_0001_0000300026_0000001_0_0001 (protein)
chain: SSSSSDAAHEIYRLLKEAAELAANGNPEEAEKVLEEARELAEEANNRVLAVVVEFLLRRLSSSSS
B7: il10ra_site1_sap_18_mot_HHH_b2_00479_000000091_0001_1_12_H_._HHH_b2_07514_0001_0000100013_0000001_0_0001 (protein)
chain: DKLTEAAARLLRRLRDPELLRKVDRITIALYEGEIPPEEVIELLKEVAEELGDPEVERLIEELKR
B8: il10ra_site1_normal_mot_HHH_b2_00612_000000251_0001_1_14_H_._HHH_b1_08403_0001_0000400019_0000001_0 (protein)
chain: SSSSSNEEYFREVRELLEEASEIDDPEERQEVLREALELAEEGNNQLLFESVEYLLRLEESSSSS
B9: il10ra_site1_sap_21_mot_HHH_b2_02337_000000026_0001_38_52_H_._HHH_b1_04531_0002_0000100002_0000001_0_0001 (protein)
chain: SSSSSSSEEERAEELLEEAKEIEDPKERNEVLLEALRLAIQLQDPELLRLVWRVVHELSSSSSSS
B10: il10ra_site1_sap_25_mot_HHH_b1_05757_000000171_0001_42_57_H_._HHH_b1_04495_0001_0000100001_0000001_0_0001 (protein)
chain: SSSSDEWYREVKEIIERIIELLRRGNKEEAEELLERLEELAEEANTPSLEFAVRLLQRELNSSSS

The list shows a part of the results.

In this assay the target is il10ra, Q13651. Briefly: yeast display titration.
On to B1, for which the “apparent Kd” value was “inactive: no binding seen”.
Regarding B2, the “apparent Kd” value was “inactive: no binding seen”.
B3: the “apparent Kd” value was “inactive: no binding seen”.
Turning to B4, the “apparent Kd” value was “inactive: no binding seen”.
For B5, the “apparent Kd” value is “inactive: no binding seen”.
B6: the “apparent Kd” value was “inactive: no binding seen”.
For the molecule B7, the “apparent Kd” value was “inactive: no binding seen”.
On to B8, for which the “apparent Kd” value was “inactive: no binding seen”.
With B9 the entry was “inactive: no binding seen”; with B10, “inactive: no binding seen”.
